This assay addresses T1, recombinant PDK1 (3-phosphoinositide-dependent protein kinase 1), stably expressed in Jurkat cells (UniProt O15530).
T1 sequence: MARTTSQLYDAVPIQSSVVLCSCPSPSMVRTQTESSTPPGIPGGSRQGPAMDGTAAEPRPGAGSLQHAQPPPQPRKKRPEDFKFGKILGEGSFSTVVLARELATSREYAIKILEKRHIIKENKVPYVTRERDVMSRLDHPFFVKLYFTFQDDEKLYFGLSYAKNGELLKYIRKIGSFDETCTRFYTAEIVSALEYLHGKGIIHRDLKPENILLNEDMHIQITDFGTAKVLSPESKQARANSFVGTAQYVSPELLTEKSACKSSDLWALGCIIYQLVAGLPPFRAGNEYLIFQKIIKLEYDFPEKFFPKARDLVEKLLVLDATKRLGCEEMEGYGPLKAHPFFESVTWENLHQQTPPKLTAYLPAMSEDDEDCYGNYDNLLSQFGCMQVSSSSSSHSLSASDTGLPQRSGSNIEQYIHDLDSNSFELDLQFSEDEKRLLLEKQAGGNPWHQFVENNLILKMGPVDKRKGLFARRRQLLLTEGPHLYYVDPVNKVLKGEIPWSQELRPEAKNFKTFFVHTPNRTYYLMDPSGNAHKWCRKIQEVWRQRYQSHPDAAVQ
Kind of assay: affinity purification with mass spectrometry; recombinant PDK1 purified from stably expressing Jurkat cells via the tag pull-down method; copurified proteins visualized by silver staining and identified by mass fingerprinting.

These are yes or no findings as the source states them, for the method shown. In cells and extracts the contact can be indirect. A yes stands for co-enrichment or nearness to the bait. Other partners may have been found.

B1: PANK4 (pantothenate kinase 4), copurified from Jurkat cells (protein, UniProt Q9NVE7 1-773)
chain: MAECGASGSGSSGDSLDKSITLPPDEIFRNLENAKRFAIDIGGSLTKLAYYSTVQHKVAKVRSFDHSGKDTEREHEPPYEISVQEEITARLHFIKFENTYIEACLDFIKDHLVNTETKVIQATGGGAYKFKDLIEEKLRLKVDKEDVMTCLIKGCNFVLKNIPHEAFVYQKDSDPEFRFQTNHPHIFPYLLVNIGSGVSIVKVETEDRFEWVGGSSIGGGTFWGLGALLTKTKKFDELLHLASRGQHSNVDMLVRDVYGGAHQTLGLSGNLIASSFGKSATADQEFSKEDMAKSLLHMISNDIGQLACLHARLHSLDRVYFGGFFIRGHPVTMRTITYSINFFSKGEVQALFLRHEGYLGAIGAFLKGAEQDNPNQYSWGENYAGSSGLMSASPELGPAQRARSGTFDLLEMDRLERPLVDLPLLLDPPSYVPDTVDLTDDALARKYWLTCFEEALDGVVKRAVASQPDSVDAAERAEKFRQKYWNKLQTLRQQPFAYGTLTVRSLLDTREHCLNEFNFPDPYSKVKQRENGVALRCFPGVVRSLDALGWEERQLALVKGLLAGNVFDWGAKAVSAVLESDPYFGFEEAKRKLQERPWLVDSYSEWLQRLKGPPHKCALIFADNSGIDIILGVFPFVRELLLRGTEVILACNSGPALNDVTHSESLIVAERIAGMDPVVHSALQEERLLLVQTGSSSPCLDLSRLDKGLAALVRERGADLVVIEGMGRAVHTNYHAALRCESLKLAVIKNAWLAERLGGRLFSVIFKYEVPAE
Turning to B1, the binding entry was “binds”.

For the origin of these results see publication PMC12443970.
